Consider six substances from publication doi:10.1101/2020.02.04.933978.

Amino acid sequences for entries named in this document (tags omitted). A change or cut given only in a name is not applied to a line headed by its entry.
UniProt Q9ZQ31: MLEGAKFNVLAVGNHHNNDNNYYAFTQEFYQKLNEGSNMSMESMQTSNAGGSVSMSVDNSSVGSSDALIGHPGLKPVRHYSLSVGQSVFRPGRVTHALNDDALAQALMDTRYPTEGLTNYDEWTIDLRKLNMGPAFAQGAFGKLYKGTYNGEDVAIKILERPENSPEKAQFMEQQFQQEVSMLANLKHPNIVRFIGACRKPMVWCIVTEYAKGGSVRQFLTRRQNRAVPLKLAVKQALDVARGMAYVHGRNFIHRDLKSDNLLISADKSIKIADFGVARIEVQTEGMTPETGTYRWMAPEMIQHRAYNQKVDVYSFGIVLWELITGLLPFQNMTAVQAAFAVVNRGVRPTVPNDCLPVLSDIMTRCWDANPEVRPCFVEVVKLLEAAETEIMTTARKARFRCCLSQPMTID
UniProt Q9FIL6: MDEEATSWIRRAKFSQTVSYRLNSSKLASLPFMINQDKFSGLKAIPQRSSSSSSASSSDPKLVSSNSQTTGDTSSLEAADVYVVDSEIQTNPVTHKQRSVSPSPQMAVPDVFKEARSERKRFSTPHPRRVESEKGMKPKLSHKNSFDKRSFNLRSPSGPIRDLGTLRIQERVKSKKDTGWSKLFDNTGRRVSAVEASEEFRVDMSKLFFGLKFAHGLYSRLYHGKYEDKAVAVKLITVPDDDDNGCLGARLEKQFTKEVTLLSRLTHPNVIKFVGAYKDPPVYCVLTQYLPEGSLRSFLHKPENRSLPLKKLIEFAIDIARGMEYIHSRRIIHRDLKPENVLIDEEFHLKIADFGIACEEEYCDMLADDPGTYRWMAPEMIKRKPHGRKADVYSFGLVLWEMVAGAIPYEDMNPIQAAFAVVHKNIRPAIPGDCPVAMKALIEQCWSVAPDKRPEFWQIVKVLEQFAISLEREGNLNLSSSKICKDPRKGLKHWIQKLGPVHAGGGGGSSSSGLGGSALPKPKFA

In experiment [1] the target is T1, SRK2D fused to nEYFP (BiFC) (Arabidopsis thaliana) (UniProt Q39192).
T1 sequence: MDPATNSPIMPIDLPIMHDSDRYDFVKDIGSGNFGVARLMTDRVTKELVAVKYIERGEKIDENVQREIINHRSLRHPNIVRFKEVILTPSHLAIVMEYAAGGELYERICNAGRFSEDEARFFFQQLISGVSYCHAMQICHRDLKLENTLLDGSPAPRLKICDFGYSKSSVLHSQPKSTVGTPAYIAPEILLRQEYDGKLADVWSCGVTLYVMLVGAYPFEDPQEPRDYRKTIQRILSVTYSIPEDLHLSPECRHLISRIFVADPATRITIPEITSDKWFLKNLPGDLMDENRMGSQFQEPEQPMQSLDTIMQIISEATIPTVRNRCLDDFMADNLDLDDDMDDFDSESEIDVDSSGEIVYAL
In words: split reporter.

For experiment [2], the target named is T2, SRK2E fused to nEYFP (BiFC) (Arabidopsis thaliana) (UniProt Q940H6).
T2 sequence: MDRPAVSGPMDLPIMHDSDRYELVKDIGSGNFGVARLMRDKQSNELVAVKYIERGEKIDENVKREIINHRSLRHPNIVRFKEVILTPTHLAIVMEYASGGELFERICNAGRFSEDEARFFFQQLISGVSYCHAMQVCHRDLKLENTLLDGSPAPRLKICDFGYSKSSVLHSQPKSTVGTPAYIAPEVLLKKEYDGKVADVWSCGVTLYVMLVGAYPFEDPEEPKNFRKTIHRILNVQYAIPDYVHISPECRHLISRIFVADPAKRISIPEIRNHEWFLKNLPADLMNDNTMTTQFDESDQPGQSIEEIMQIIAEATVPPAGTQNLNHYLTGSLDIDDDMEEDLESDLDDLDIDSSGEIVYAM
In words: split reporter.

The target in experiment [3] is T3, SRK2I fused to nEYFP (BiFC) (Arabidopsis thaliana) (UniProt Q39193).
T3 sequence: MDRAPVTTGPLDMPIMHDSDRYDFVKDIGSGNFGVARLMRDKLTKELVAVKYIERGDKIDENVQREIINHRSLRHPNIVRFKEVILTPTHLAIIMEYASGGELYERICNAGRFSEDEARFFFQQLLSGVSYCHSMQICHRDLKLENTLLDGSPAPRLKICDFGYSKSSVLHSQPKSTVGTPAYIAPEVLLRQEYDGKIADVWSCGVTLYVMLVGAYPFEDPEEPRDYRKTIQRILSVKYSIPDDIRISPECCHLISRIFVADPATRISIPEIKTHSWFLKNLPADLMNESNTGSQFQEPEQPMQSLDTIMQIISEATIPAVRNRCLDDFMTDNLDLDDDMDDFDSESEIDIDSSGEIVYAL
As to the kind of experiment: split reporter.

Experiment [4] concerns the target T4, GAL4BD:SRK2E (yeast two-hybrid) (Arabidopsis thaliana) (UniProt Q940H6).
T4 sequence: T2 sequence
In words: two-hybrid.

The target in experiment [5] is T5, GAL4BD:SRK2D (yeast two-hybrid) (Arabidopsis thaliana) (UniProt Q39192).
T5 sequence: T1 sequence
In words: two-hybrid.

For experiment [6], the target named is T4, GAL4BD:SRK2E (yeast two-hybrid) (Arabidopsis thaliana). As to the kind of experiment: two-hybrid. The source holds these as a separate data set.
Experiment [7] deals with T6, GAL4BD:SRK2I (yeast two-hybrid) (Arabidopsis thaliana) (UniProt Q39193).
T6 sequence: T3 sequence
In words: two-hybrid.

In experiment [8] the target is T7, SRK2D, N-terminal biotinylated (AlphaScreen) (Arabidopsis thaliana) (UniProt Q39192).
T7 sequence (chain, N-terminal biotinylated): T1 sequence
In words: AlphaScreen or HTRF. Background: In Alpha technology, singlet oxygen from a donor bead excites a nearby acceptor bead.

Experiment [9] addresses T8, SRK2E, N-terminal biotinylated (AlphaScreen) (Arabidopsis thaliana) (UniProt Q940H6).
T8 sequence (chain, N-terminal biotinylated): T2 sequence
As to the kind of experiment: AlphaScreen or HTRF.

Experiment [10] deals with T9, SRK2I, N-terminal biotinylated (AlphaScreen) (Arabidopsis thaliana) (UniProt Q39193).
T9 sequence (chain, N-terminal biotinylated): T3 sequence
As to the kind of experiment: AlphaScreen or HTRF.

Read-outs that look alike come from different tables or passages of the source. Results are given in words; binding and its absence hold for the method and conditions named. A result given as binding can be weak or reduced; the word gives no strength. For part of these data: In cells and extracts the contact can be indirect. For part of these data: Where a sequence is shown, tags or fusion partners need not be part of it.

Consider “Raf36 fused to cEYFP (BiFC) (Arabidopsis thaliana) (enzyme)”, for which the binding entry in experiment [1], in experiment [2] and in experiment [3] was “binds” throughout.
Regarding “GAL4AD:Raf36 full-length protein (yeast two-hybrid) (Arabidopsis thaliana) (enzyme)”, the binding result in experiment [4], in experiment [5], in experiment [6] and in experiment [7] was “binds” throughout.
Take “GAL4AD:Raf36 N (amino acid residues 1-206) (yeast two-hybrid) (Arabidopsis thaliana) (domain or fragment)”: the binding result in [6] is given as “binds weakly”.
As for “Raf22 fused to cEYFP (BiFC) (from UniProt Q9ZQ31) (enzyme)”, the binding result in experiment [1], in experiment [2] and in experiment [3] was “binds” throughout.
Turning to “GAL4AD:Raf36 KD+C (207-525) (yeast two-hybrid) (Arabidopsis thaliana) (domain or fragment)”, the binding entry in experiment [4] is given as “no binding”.
In the case of “Raf36, C-terminal FLAG-tagged (AlphaScreen) (from UniProt Q9FIL6) (enzyme)”, the binding result in experiment [8], in [9] and in experiment [10] was “binds” each time.
